Taken from: PubChem BioAssay AID1508597 (Cure First, 2020)

Aim: 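Survival screen with siRNA in ovarian cancer cells derived from patients, with or without rucaparib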 (primary screen)
System: human ovarian carcinoma lines grown from tumours: OCI-P5x (papillary serous) and OCI-C5x (clear cell)
Knock-down reagent: siRNA pool against human genes, 1.25 pmol siRNA per well
Timing: 72 h or 96 h, depending on the cell culture
Challenge: rucaparib 20 µM (about IC30) or vehicle, present until read-out
Rucaparib or vehicle: Vehicle
Cell line: OCI-P5x (serous)
Read-out: 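ATP luminescence measured at 72 or 96 h according to the culture, then normalised and expressed as percent viability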
Scale: viability, normalised: higher = more viable cells remaining
Rule for the call: 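a well counts as a hit if its normalised viability is under 80 percent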
Calls: active = viability under 80%; inactive = viability 80% or more
Shown is a random part of the about 2,100 reagents, in one setting of the screen. 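Calls flag viability under 80% in either arm, not effects specific to rucaparib; the reference for percent is not stated.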 Some reagents were tested in more than one well and are listed for each. The record does not give: the 100% reference.

What did the screen give for XRCC1 (X-ray repair cross complementing 1), technical replicate 1?
viability, normalised (%): 82.5; activity call: inactive

With XRCC1 (X-ray repair cross complementing 1), technical replicate 2, how do the results read?
viability, normalised (%): 77.2; activity call: active

What did the screen give for XRCC1 (X-ray repair cross complementing 1), technical replicate 3?
viability, normalised (%): 69.6; activity call: active

What is on record for FMN2 (formin 2), technical replicate 1?
viability, normalised (%): 60.4; activity call: active

What is on record for FMN2 (formin 2), technical replicate 2?
viability, normalised (%): 49.3; activity call: active

How did the screen score FMN2 (formin 2), technical replicate 3?
viability, normalised (%): 55.2; activity call: active

Which result is listed for KPNA2 (karyopherin subunit alpha 2), technical replicate 1?
viability, normalised (%): 110; activity call: inactive

What did the screen give for KPNA2 (karyopherin subunit alpha 2), technical replicate 2?
viability, normalised (%): 92.9; activity call: inactive

What did the screen give for KPNA2 (karyopherin subunit alpha 2), technical replicate 3?
viability, normalised (%): 93.3; activity call: inactive

How did the screen score JAK1 (Janus kinase 1), technical replicate 1?
viability, normalised (%): 52.1; activity call: active

What is on record for JAK1 (Janus kinase 1), technical replicate 2?
viability, normalised (%): 58.2; activity call: active

Which result is listed for JAK1 (Janus kinase 1), technical replicate 3?
viability, normalised (%): 61.4; activity call: active

With RAG2 (recombination activating 2), technical replicate 1, how do the results read?
viability, normalised (%): 56.2; activity call: active

Which result is listed for RAG2 (recombination activating 2), technical replicate 2?
viability, normalised (%): 74.7; activity call: active

What did the screen give for RAG2 (recombination activating 2), technical replicate 3?
viability, normalised (%): 122; activity call: inactive

For MSH2 (mutS homolog 2), technical replicate 1, how do the results read?
viability, normalised (%): 81.9; activity call: inactive

Which result is listed for MSH2 (mutS homolog 2), technical replicate 1?
viability, normalised (%): 54.1; activity call: active

Which result is listed for MSH2 (mutS homolog 2), technical replicate 2?
viability, normalised (%): 68.6; activity call: active

With MSH2 (mutS homolog 2), technical replicate 2, what was measured?
viability, normalised (%): 69.6; activity call: active

With MSH2 (mutS homolog 2), technical replicate 3, what does the deposit list?
viability, normalised (%): 74.5; activity call: active

For MSH2 (mutS homolog 2), technical replicate 3, what was measured?
viability, normalised (%): 51; activity call: active

3 entries already listed, arranged by “viability, normalised (%)”, high to low:
MSH2 (mutS homolog 2), technical replicate 3 — viability, normalised (%): 74.5; activity call: active
MSH2 (mutS homolog 2), technical replicate 2 — viability, normalised (%): 69.6; activity call: active
MSH2 (mutS homolog 2), technical replicate 2 — viability, normalised (%): 68.6; activity call: active
